# Results are given in words; binding and its absence hold for the method and conditions named. In cells and extracts the contact can be indirect. These calls come from enrichment with a bait or labelling near it, and not all partners need be listed. A no says only that the protein was not detected with the bait.
# B1: 40S ribosomal protein S12 (protein, UniProt O97249 1-141)
# chain: MSDVESADNNVVVEEKAVFDNVTAIQKVIKNAHVHDGLKIGIREVIKSIESQEAKVCFLSDVCSEPAYKKLITTLCAEKNIPLFMVQNDSKDLGHWAGLFKLDNEGNARKIIGASSVAVVDFGEDSAEKDFLLSQNQTVTA
# B2: Plasmoredoxin (Thioredoxin-like redox-active protein) (protein, UniProt Q8I224 1-179)
# chain: MACQVDNPPKTYPNDKTAEYEKYANYMNYLYYYQNNELKKIDSSYFKDKYLGLFFGASWCKYCVTFIDSLNIFKKNFPNVEIIYIPFDRTYQEYQSFLKNTNFYALPFDNYLYICKKYQIKNLPSFMLITPNNNILVKDAAQLIKTDEYINNLKSLIKNYIIHPKTFQFNNRFFDLFRN
# B3: Phosphoethanolamine N-methyltransferase, putative (enzyme, UniProt Q8IDQ9 1-266)
# chain: MTLIENLNSDKTFLENNQYTDEGVKVYEFIFGENYISSGGLEATKKILSDIELNENSKVLDIGSGLGGGCMYINEKYGAHTHGIDICSNIVNMANERVSGNNKIIFEANDILTKEFPENNFDLIYSRDAILHLSLENKNKLFQKCYKWLKPTGTLLITDYCATEKENWDDEFKEYVKQRKYTLITVEEYADILTACNFKNVVSKDLSDYWNQLLEVEHKYLHENKEEFLKLFSEKKFISLDDGWSRKIKDSKRKMQRWGYFKATKN
# B4: Guanine nucleotide-binding protein, putative/receptor for activated C kinase homolog (protein, UniProt Q8IBA0 1-323)
# chain: MMDNIKEAEISLRGVLEGGHSDWVTSVSTPTDPKLKTIVSASRDKKLIVWNINTDDDSGEIGTAKKSLTGHSQAINDVSISSDGLFALSGSWDHSVRLWDLSLGETIRSFIGHTSDVFSVSFSPDNRQIVSASRDKTIKLWNTLAQCKYTITDQQHTDWITCVRFSPSPNQAIIVSCGWDKLVKVWNLKNCDLNKNLEGHTGVLNTVTISPDGSLCASGGKDGVAKLWDVKEGKHLYSLETGSTINSLCFSPCDYWLCAATDRFIRIWNLESKLIISEIYPVKQSKIGVPWCTSLTWSANGQLLYCGSTDGNIYVYEVKKHSV
# B5: Ornithine aminotransferase (from parasite lysate) (enzyme, UniProt Q6LFH8 1-414)
# chain: MDFVKELKSSQDYMNNELTYGAHNYDPIPVVLKRGKGVFVYDIEDRRYYDFLSAYSSVNQGHCHPDILNAMINQAKKLTICSRAFFSDSLGVCERYLTNLFGYDKVLMMNTGAEASETAYKLCRKWGYEVKKIPENSAKIIVCNNNFSGRTLGCVSASTDKKCKNNFGPFVPNFLKVPYDDLEALEKELQDPNVCAFIVEPVQGEAGVIVPSDSYFPGVASLCKKYNVLFVADEVQTGLGRTGKLLCTHHYGVKPDVILLGKALSGGHYPISAILANDDVMLVLKPGEHGSTYGGNPLAAAICVEALKVLINEKLCENADKLGAPFLQNLKEQLKDSKVVREVRGKGLLCAIEFKNDLVNVWDICLKFKENGLITRSVHDKTVRLTPPLCITKEQLDECTEIIVKTVKFFDDNL
# B6: 2-Cys peroxiredoxin (2-Cys-Prx) (protein, UniProt Q8IL80 1-195)
# chain: MASYVGREAPYFKAEAVFADNTFGEVNLHDFIGKKYVLLYFYPLDFTFVCPSEIIALDKALDAFKERNVELIGCSVDSKYTHLAWKKTPLTKGGIGNIQHTLISDITKSISRSYNVLFGDSVSLRAFVLIDKQGVVQHLLVNNLAIGRSVEEVLRIIDAVQHHEQHGDVCPANWKKGKVAMKPSEEGVSEYLSKL
# B7: 1-Cys peroxiredoxin (1-Cys-Prx) (protein, UniProt Q8IAM2 1-220)
# chain: MAYHLGATFPNFTATASNVDGVFDFYKYVGDNWAILFSHPHDFTPVCTTELAEFGKMHEEFLKLNCKLIGFSCNSKESHDQWIEDIKFYGNLDKWDIPMVCDESRELANQLKIMDEKEKDIKGLPLTCRCVFFISPDKKVKATVLYPATTGRNSQEILRVLKSLQLTNTHPVATPVNWKEGDKCCILPSVDNADLPKLFKNEVKKLDVPSQKAYLRFVQM
# B8: Human peroxiredoxin 2 (Prx 2) (protein, UniProt P32119 1-198)
# chain: MASGNARIGKPAPDFKATAVVDGAFKEVKLSDYKGKYVVLFFYPLDFTFVCPTEIIAFSNRAEDFRKLGCEVLGVSVDSQFTHLAWINTPRKEGGLGPLNIPLLADVTRRLSEDYGVLKTDEGIAYRGLFIIDGKGVLRQITVNDLPVGRSVDEALRLVQAFQYTDEHGEVCPAGWKPGSDTIKPNVDDSKEYFSKHN
# Biological target: PfGrx1^C32S (P. falciparum)
# Assay: affinity purification with mass spectrometry; 1 mg pure active site mutant coupled to CNBr-activated Sepharose 4B; incubated with P. falciparum trophozoite cell lysate (7-10 mg protein) at room temperature for at least 2 h; washed with 100 mM Tris, 500 mM NaCl, pH 8.0; eluted with 10 mM DTT (mixed disulfide trapping); SDS-PAGE bands identified by MALDI-TOF peptide mass fingerprinting; only the target purified
row,Binder,binding
1,B1,binds
2,B2,binds
3,B3,binds
4,B4,binds
5,B5,binds
6,B6,no binding
7,B7,no binding
8,B8,no binding

# From paper PMC2660430
